The results are deposited in PubChem (AID504749; NCATS, 2011).

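A panel of P. falciparum strains inside erythrocytes is exposed to compounds for three days, then a DNA-binding dye reports the amount of parasite DNA. Each compound was titrated across a series from about 0.000037 to 29 µM. The number is the fitted AC50, the concentration giving a half-maximal change in signal; a lower value means higher potency, whether the curve shows a decrease or an increase. Calls follow the curve class and fit quality: every row here is inconclusive, covering signal-raising curves and weak, poorly fitted, partial or highest-dose-only inhibition curves.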

Values are in µM. Every entry below has the call inconclusive. These entries are mostly ones the record files as inconclusive; other results of the assay are not listed here. A potency from a partial, single-point or poor curve is only a rough figure. Some entries filed as inconclusive have a full curve.

For CN1CCN(c2c(F)cc3c(=O)c(C(=O)O)cn4c3c2SCC4)CC1 [ECU] the result was fitted potency 12.59 µM (inhibitor, partial curve, poor fit).
For CN1CCN(c2c(F)cc3c(=O)c(C(=O)O)cn4c3c2SCC4)CC1 [CP256] the result was fitted potency 2.239 µM (inhibitor, full curve).
For CN1CCN(c2c(F)cc3c(=O)c(C(=O)O)cn4c3c2SCC4)CC1 [CP237] the result was fitted potency 12.59 µM (inhibitor, single point).
For CN1CCN(c2c(F)cc3c(=O)c(C(=O)O)cn4c3c2SCC4)CC1 [CP211] the result was fitted potency 0.0478 µM (inhibitor, full curve, poor fit).
For CN1CCN(c2c(F)cc3c(=O)c(C(=O)O)cn4c3c2SCC4)CC1 [C2A] the result was fitted potency 17.78 µM (inhibitor, single point).
For CN1CCN(c2c(F)cc3c(=O)c(C(=O)O)cn4c3c2SCC4)CC1 [CP335] the result was fitted potency 15.1 µM (inhibitor, single point).
For O=c1c(-c2ccccc2)c1-c1ccccc1 [CP305] the result was fitted potency 19.01 µM (inhibitor, single point).
For O=c1c(-c2ccccc2)c1-c1ccccc1 [CP335] the result was fitted potency 15.1 µM (inhibitor, single point).
For O=c1c(-c2ccccc2)c1-c1ccccc1 [PAD] the result was fitted potency 12.59 µM (inhibitor, single point).
For O=c1c(-c2ccccc2)c1-c1ccccc1 [JCK] the result was fitted potency 11.22 µM (inhibitor, single point).
For O=c1c(-c2ccccc2)c1-c1ccccc1 [CP256] the result was fitted potency 17.78 µM (inhibitor, single point).
For O=c1c(-c2ccccc2)c1-c1ccccc1 [ECU] the result was fitted potency 11.22 µM (inhibitor, single point).
For O=c1c(-c2ccccc2)c1-c1ccccc1 [CP266] the result was fitted potency 12 µM (inhibitor, single point).
For O=c1c(-c2ccccc2)c1-c1ccccc1 [DIV30] the result was fitted potency 16.94 µM (inhibitor, single point).
For O=c1c(-c2ccccc2)c1-c1ccccc1 [FAB9] the result was fitted potency 15.85 µM (inhibitor, single point).
For O=c1c(-c2ccccc2)c1-c1ccccc1 [CP329] the result was fitted potency 19.01 µM (inhibitor, single point).
For O=c1c(-c2ccccc2)c1-c1ccccc1 [CP237] the result was fitted potency 11.22 µM (inhibitor, single point).
For O=c1c(-c2ccccc2)c1-c1ccccc1 [CP325] the result was fitted potency 15.1 µM (inhibitor, single point).
For O=c1c(-c2ccccc2)c1-c1ccccc1 [CP291] the result was fitted potency 19.01 µM (inhibitor, single point).
For O=c1c(-c2ccccc2)c1-c1ccccc1 [PC49] the result was fitted potency 10 µM (inhibitor, single point).
For O=c1c(-c2ccccc2)c1-c1ccccc1 [PC15] the result was fitted potency 11.22 µM (inhibitor, single point).
For O=c1c(-c2ccccc2)c1-c1ccccc1 [CP215] the result was fitted potency 12 µM (inhibitor, single point).
For O=c1c(-c2ccccc2)c1-c1ccccc1 [CP203] the result was fitted potency 12 µM (inhibitor, single point).
For O=c1c(-c2ccccc2)c1-c1ccccc1 [TAB113] the result was fitted potency 12.59 µM (inhibitor, single point).

For reference, 2 entries once more:

compound,setting,fitted potency (µM),remark
O=c1c(-c2ccccc2)c1-c1ccccc1,CP325,15.1,"inhibitor, single point"
O=c1c(-c2ccccc2)c1-c1ccccc1,CP329,19.01,"inhibitor, single point"